# Laboratory results taken from PubChem BioAssay AID1487 (National Center for Advancing Translational Sciences (NCATS), 2009).
# The other results are listed elsewhere or left out. Further columns of the screen follow, without active or inactive calls. Compounds called inactive in the main read-out are mostly missing here. Potencies come from curve fits of mixed quality, noted in brackets.
# Assay: qHTS Assay for Modulators of Lamin A Splicing
# Conditions: HeLa LMNA splicing GFP/RFP minigene ratio, 48 h
# Method in brief: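 S3 HeLa cells stably expressing lamin A-EGFP splicing minigene plus DsRed2, 600 cells/well, 48 h compound exposure at 37C. Laser-scanning cytometry; analysed as GFP (500-530 nm)/RFP (575-640 nm) total intensity ratio; 0.5% DMSO vehicle.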
# [1] = measured here: RFP viability control channel
# [2] = measured here: GFP splicing reporter channel
SMILES,AC50 [1],AC50 [2]
O=C(NCc1ccc(F)cc1)C(=O)NCC(c1ccco1)N1CCOCC1 (configuration not stated),"0.01 µM [falling, full curve, poor fit]",
O=C(NCCc1ccccc1)c1oc2ccccc2c1COc1ccccc1,"25.1 µM [rising, single point]","11.2 µM [rising, single point]"
CCN(CC)c1ccc(/C=N/Nc2nc(C)cc(=O)[nH]2)c(O)c1,"10 µM [rising, partial curve]",
CC1=C(C(=O)Nc2nc3ccccc3s2)C(c2ccco2)C(C#N)=C(SCC(=O)NC2CCCCC2)N1 (configuration not stated),"35.5 µM [rising, single point]","35.5 µM [rising, single point]"
Cc1ccc(C2CC2c2n[nH]c(=S)n2-c2cccc(C)c2)cc1 (configuration not stated),"2.82 µM [rising, single point]",
Cc1cc(SCC(=O)NC(=O)NCc2ccco2)nc2ccccc12,"28.2 µM [rising, single point]","35.5 µM [rising, single point]"
CCN(CC)S(=O)(=O)c1ccc2c(c1)nc(CCC(=O)Nc1ccc3c(c1)OCO3)n2CC,"35.5 µM [rising, single point]","20 µM [rising, single point]"
Cc1cc(NC(=O)c2ccc(F)cc2)n(CCOC(=O)c2ccc(F)cc2)n1,"12.6 µM [rising, partial curve, poor fit]",
O=C(Cc1ccc(-n2cccc2)cc1)NCc1cccs1,"3.98 µM [rising, full curve]",
CC(C)c1ccc(OC(=O)c2cc(-c3ccccc3)on2)cc1,"35.5 µM [falling, single point]","35.5 µM [falling, single point]"
O=C(c1ccc(COc2ccc(Cl)cc2)o1)N1CCN(Cc2ccc3c(c2)OCO3)CC1,"8.91 µM [rising, partial curve]",
CCCC1Nc2ccc(C(=O)O)cc2C2C=CCC12 (configuration not stated),,"1 µM [rising, partial curve, poor fit]"
Fc1cc(F)c(F)c(SCCc2ccncc2)c1F,"0.178 µM [rising, single point]",
COc1ccc(C2C(C(=O)Nc3cccnc3)=C(C)Nc3nc(-c4cccs4)nn32)cc1 (configuration not stated),"14.1 µM [rising, single point]",
O=C(CN1CCN(c2ccccc2)CC1)Nc1ccccc1Sc1ccccc1,"28.2 µM [rising, single point]",
O=C(C[n+]1cc(-c2ccc(F)cc2)n2c1CCC2)N1c2ccccc2Sc2ccccc21,"35.5 µM [rising, single point]",
CSCC[C@H](NC(=O)OC(C)(C)C)c1nnc(SCc2cccc(F)c2)o1,"31.6 µM [rising, single point]","35.5 µM [rising, single point]"
OCCC1CN(Cc2ccsc2)CCN1C1CCCC1 (configuration not stated),"6.31 µM [falling, partial curve, poor fit]",
C=CCn1c(CNc2ccccc2)nnc1SCC(=O)N/N=C/c1ccccc1O,"35.5 µM [rising, single point]","31.6 µM [rising, single point]"

SMILES,AC50 [1],AC50 [2]
COc1ccc(CN2C(=O)c3ccccc3C2C(=O)NCCc2ccccc2)c(OC)c1 (configuration not stated),"0.447 µM [falling, single point]",
CC(C)(C)NS(=O)(=O)c1cc(C(=O)Nc2sccc2C#N)ccc1Cl,"11.2 µM [rising, partial curve]","5.62 µM [rising, partial curve]"
O=C(O)CSCC(=O)Nc1ccc(S(=O)(=O)N2CCCCC2)cc1,"0.0316 µM [falling, full curve]",
Cn1c(=O)n(/N=C/c2ccccc2)c2ccccc21,"0.158 µM [rising, full curve, poor fit]",
COc1ccc(CNc2oc(-c3ccc(COc4ccccc4C)o3)nc2C#N)cc1,"35.5 µM [falling, single point]",
CCn1cc(C2=NOC(C(=O)Nc3cc(OC)c(Cl)cc3OC)C2)c(C)n1 (configuration not stated),"15.8 µM [rising, partial curve]","17.8 µM [rising, partial curve]"
Cc1ccc(-c2nc(C)c(CCNS(=O)(=O)c3ccc(F)c(C(F)(F)F)c3)s2)cc1,"35.5 µM [falling, single point]","35.5 µM [falling, single point]"
CCCCC(CC)C(=O)Nc1ccc(C)c(O)c1 (configuration not stated),"11.2 µM [falling, partial curve, poor fit]",
O=C(/C=C/c1ccc2c(c1)OCO2)c1ccccn1,"14.1 µM [falling, single point]",
CCOC(=O)c1sc(S(C)(=O)=O)c2c1CCc1conc1-2,"0.0891 µM [falling, full curve, poor fit]",
CCCOc1ccc2ccccc2c1/C=N/n1c(C)nnc1-n1nc(C)cc1C,"3.55 µM [rising, full curve, poor fit]",
CC1(C)CCC2=C(O1)c1ccccc1C(=O)C2=O,"0.00501 µM [falling, full curve, poor fit]","22.4 µM [falling, partial curve, poor fit]"
CNc1nc(-c2ccc3c(c2)OCO3)nc2ccccc12,,"22.4 µM [falling, partial curve, poor fit]"
COc1cc2c(c(OC)c1)C(c1cccc(OC)c1OC)CC(=O)N2 (configuration not stated),"12.6 µM [rising, single point]",
CCSc1nnc(NC(=O)NC(C)(C(F)(F)F)C(F)(F)F)s1,"11.2 µM [rising, partial curve]","7.94 µM [rising, partial curve]"
C=CCNc1nc(-c2ccccc2)c(C(=O)OCC)cc1C#N,"17.8 µM [falling, single point]","25.1 µM [falling, single point]"
CC(C)(C)CC(C)(C)N=C1NS(=O)(=O)c2cc([N+](=O)[O-])ccc21,,"12.6 µM [falling, partial curve, poor fit]"
Nc1ncc(-n2cncn2)c(-c2ccccc2)n1,"28.2 µM [falling, partial curve, poor fit]",
O=S1(=O)CCN2C(=N1)Sc1c2ccc2c1CCCC2,"14.1 µM [falling, single point]",

SMILES,AC50 [1],AC50 [2]
O=C(c1ccccn1)c1cc2ccccc2n1S(=O)(=O)c1ccccc1,"10 µM [rising, partial curve]","7.94 µM [rising, partial curve]"
NC1=NC(=Nc2ccc(Cl)cc2)c2ccccc21,"35.5 µM [rising, single point]",
C=C(C)CNC(=S)NNC(=O)CCn1c2ccc(Cl)cc2c2cc(Cl)ccc21,"22.4 µM [falling, single point]","35.5 µM [falling, single point]"
O=C(Cc1ccccc1)Nc1nc(-c2cccs2)cs1,"14.1 µM [rising, partial curve, poor fit]",
COc1cccc(C(=O)CSc2nnc(-c3cc(OC)cc(OC)c3)o2)c1,,"0.178 µM [rising, full curve, poor fit]"
CC(C)(C)c1ccc(C(=O)NC(=S)NCC2CCCO2)cc1 (configuration not stated),"15.8 µM [rising, partial curve]",
CC(C)n1c(O)c(N=NC(=O)C2COc3ccccc3O2)c2ccccc21 (configuration not stated),"0.00501 µM [rising, full curve, poor fit]","0.00631 µM [rising, full curve, poor fit]"
CCOC(=O)c1c(-c2ccc(C)cc2)csc1NC(=O)C1CCCO1 (configuration not stated),"22.4 µM [rising, partial curve]","14.1 µM [rising, partial curve]"
Cc1ccc2sc(NC(=O)c3ccc4c(c3)OCCO4)nc2c1C,"35.5 µM [rising, partial curve]","28.2 µM [rising, partial curve, poor fit]"
COc1ccc(NC(=O)CN2c3cccc4cccc(c34)S2(=O)=O)c(OC)c1,"12.6 µM [rising, single point]",
CCN(CC)CCCNC(=O)c1nn(C)c2c1CS(=O)(=O)c1ccccc1-2,,"35.5 µM [falling, single point]"
Cc1ccccc1Cn1c(CN2CCC(C(=O)NCCc3ccccc3)CC2)cc2ccccc21,,"6.31 µM [falling, full curve, poor fit]"
Cc1ccc(C(=O)NNC(=S)Nc2cccc(Cl)c2Cl)cc1[N+](=O)[O-],"12.6 µM [rising, single point]",
NC(=O)COC(=O)c1ccc(-c2ccc(O)cc2)cc1,"0.282 µM [rising, full curve]","1.58 µM [rising, full curve, poor fit]"
CCN(CC)S(=O)(=O)c1cccc(NC(=O)COC(=O)CCC(=O)c2cccs2)c1,,"0.631 µM [rising, full curve, poor fit]"
COCCCNc1oc(-c2ccc(COc3ccc(Cl)cc3)o2)nc1C#N,"11.2 µM [rising, single point]",
c1ccc(-c2n[nH]c3c2CCC3)cc1,"5.01 µM [falling, full curve]","5.01 µM [falling, full curve]"
COC(=O)c1ccccc1NC(=O)Cn1c(-c2nonc2N)nc2ccccc21,"2.51 µM [rising, full curve]",
O=C1/C(=C/c2ccccc2[N+](=O)[O-])COc2ccccc21,"15.8 µM [rising, partial curve]",

# 4 of the compounds above, with bars between the fields:
SMILES | AC50 [1] | AC50 [2]
O=C(Cc1ccc(-n2cccc2)cc1)NCc1cccs1 | 3.98 µM [rising, full curve] | 
CC1(C)CCC2=C(O1)c1ccccc1C(=O)C2=O | 0.00501 µM [falling, full curve, poor fit] | 22.4 µM [falling, partial curve, poor fit]
C=C(C)CNC(=S)NNC(=O)CCn1c2ccc(Cl)cc2c2cc(Cl)ccc21 | 22.4 µM [falling, single point] | 35.5 µM [falling, single point]
O=C(Cc1ccccc1)Nc1nc(-c2cccs2)cs1 | 14.1 µM [rising, partial curve, poor fit] | 
